No constants are given. Whether binding was seen depends on the method and setting. Some binding calls cover weakened binding; strength is not graded here.
Target: T1, VEGFR2 (recombinant, surface plasmon resonance), P35968
T1 chain: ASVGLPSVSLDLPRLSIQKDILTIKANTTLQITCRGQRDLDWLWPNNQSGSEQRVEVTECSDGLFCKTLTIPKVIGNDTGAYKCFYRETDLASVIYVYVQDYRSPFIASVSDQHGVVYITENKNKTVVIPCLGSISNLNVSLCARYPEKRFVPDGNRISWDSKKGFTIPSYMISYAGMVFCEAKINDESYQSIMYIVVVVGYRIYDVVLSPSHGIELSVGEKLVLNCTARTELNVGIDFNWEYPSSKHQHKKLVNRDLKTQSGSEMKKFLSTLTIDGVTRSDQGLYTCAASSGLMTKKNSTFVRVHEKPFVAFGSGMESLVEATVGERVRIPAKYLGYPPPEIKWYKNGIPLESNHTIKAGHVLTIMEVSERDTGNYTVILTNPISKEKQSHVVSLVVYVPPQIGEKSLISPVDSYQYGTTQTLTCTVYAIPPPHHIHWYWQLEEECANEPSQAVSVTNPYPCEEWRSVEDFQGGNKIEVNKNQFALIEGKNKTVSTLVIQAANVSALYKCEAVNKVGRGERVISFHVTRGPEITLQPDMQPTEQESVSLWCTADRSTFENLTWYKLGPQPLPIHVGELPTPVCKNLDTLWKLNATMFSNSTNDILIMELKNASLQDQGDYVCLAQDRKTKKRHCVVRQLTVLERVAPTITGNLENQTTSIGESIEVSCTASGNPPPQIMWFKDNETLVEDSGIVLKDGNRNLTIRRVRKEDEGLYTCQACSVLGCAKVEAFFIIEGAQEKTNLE
Experiment: surface plasmon resonance
Details: remark: other sources report otherwise

- binding: binds
B1: PDGF-CC (recombinant), Q9NRA1 235-345 (ligand, UniProt Q9NRA1 235-345, looked up)
chain: VVDLNLLTEEVRLYSCTPRNFSVSIREELKRTDTIFWPGCLLVKRCGGNCACCLHNCNECQCVPSKVTKKYHEVLQLRPKTGVRGLHKSLTDVALEHHEECDCVCRGSTGG

— patent US20230050038A1
